Earlier results in US9365541B2, “Compounds for use in the treatment of parasitic diseases” (IRBM—SCIENCE PARK S.P.A., priority 2012, dated 2016).
pIC50: −log10 of the molar value.

Test system: P. falciparum
Conditions: literature value; read-out: IC50 against P. falciparum; cited from earlier work

In the case of O=C(CCCCCCC(=O)Nc1ccccc1)NO [SAHA], the pIC50 is given as 6.52 to 7.00.
